This is an account of results in publication PMC6706427.

By UniProt entry, the sequences of proteins in these tests, tags left out.
UniProt Q99816: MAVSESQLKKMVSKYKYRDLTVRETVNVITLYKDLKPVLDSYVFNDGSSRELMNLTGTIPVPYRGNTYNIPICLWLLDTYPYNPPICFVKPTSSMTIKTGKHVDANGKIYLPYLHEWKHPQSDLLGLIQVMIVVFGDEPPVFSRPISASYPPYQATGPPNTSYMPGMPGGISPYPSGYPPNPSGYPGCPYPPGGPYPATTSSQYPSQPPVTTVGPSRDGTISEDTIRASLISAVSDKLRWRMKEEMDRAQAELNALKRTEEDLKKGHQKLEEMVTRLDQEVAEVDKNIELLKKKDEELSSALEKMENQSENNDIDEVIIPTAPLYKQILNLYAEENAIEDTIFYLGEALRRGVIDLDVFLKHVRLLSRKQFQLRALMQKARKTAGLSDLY

These are yes or no findings as the source states them, for the method shown. Binding seen in cells or lysates may run through a third protein. Binding calls can cover weak binding; strength is not graded here.

In the assay the target is Flag-CLIC4 (dog). Briefly: co-IP; lysates of co-transfected 293T cells in RIPA buffer plus 0.5% CHAPS; anti-Flag or control antibody; Protein-G Dynabeads; 4 °C overnight; 4 washes; blots quantified with the Odyssey system, three independent repeats.

Turning to “mCherry-Tsg101 (from UniProt Q99816 1-390)”, the binding result is given as “binds”.
